Measurements taken from US11932638B2, “Ion channel inhibitor compounds for cancer treatment” (Centre National de la Recherche Scientifique, priority 2017, dated 2024).
At least one compound was matched to its structure with a doubt left.

How the values were obtained:
SK3 channel [1] = target: T1, SK3 channel (Rattus norvegicus, UniProt P70605); details: literature value, cited from earlier work
T1 construct: expressed in transfected cells

SK3 channel [2] = target: T1, SK3 channel; assay: Conventional manual patch clamp on HEK-rSK3 cells, SK3 channel activity; type: cell-based; details: printed in column % SK3 inhibition
Excerpt: Cell Lines Used to Screen the Molecules on the Activity of SKCa Channels (Small Conductance Calcium-Activated Potassium Channel; SK1, SK2 and SK3) and IKCa Channels (Intermediate Conductance Calcium-Activated Potassium Channel, SK4)
Use was made of the HEK 293 T line, a foetal kidney line which was immortalised with the T antigen of the […] simian virus. This cell line is widely used on account of the ease with which these cells can be transfected with plasmids or other transfection vectors. Four stable lines were used for patch clamp experiments: HEK-hSK1, HEK-rSK2, HEK-rSK3 and HEK-IKCa/SK4 which respectively overexpress the SK1, SK2, SK3 and SK4 channels. The lines were obtained via stable transduction (Girault et al., Current Cancer Drug Targets, 2011, 11, 1111-25) and are those already routinely used to assay SK3 modulators (Potier et al. Br J Pharmacol. 2011 January; 162(2):464-79; Sevrain et al., Med. Chem. Commun., 2012, 3, 1471-1478; Sevrain et al., Organic & Biomolecular Chemistry, 2013 Jul. 21; 11(27):4479-87, Berthe W, Sevrain C M, Chantôme A, Bouchet A M, Gueguinou M, Fourbon Y, Potier-Cartereau M, Haelters J P, Couthon-Gourvès H, Vandier C, Jaffrès P A. ChemMedChem. 2016 Jul. 19; 11(14):1531-9). […] The selectivity of the molecules was determined by patch clamp on HEK cell models stably expressing the SK3 channel but also the SK1, SK2, SK3 or IKCa/SK4 channels. […]

c1ccc2c(c1)CCC[C@H]2Nc1nc2ccccc2[nH]1 [NS8593]
SK3 IC50 (Jenkins et al, 2011) (SK3 channel [1]; Jenkins et al, 2011): Jenkins et al, 2011: 104 nM ± 34
SK3 IC50 (Stroebaek et al, 2006) (SK3 channel [1]; Stroebaek et al, 2006): Stroebaek et al, 2006: 90 nM ± 8
SK3 IC50 (SK3 channel [2]): IC50: 87 nM ± 12
